Source: PubChem BioAssay AID504444 (National Center for Advancing Translational Sciences (NCATS), 2011)
In all, about 360,000 compounds went through this assay and about 7,500 (2.1%) were called active. Inconclusive means that the source gave no clear call. Such entries were picked first, then a sample of the others. The call rests on the fitted dose curve; in most records, active means well fitted inhibition curve with a large enough effect; inconclusive means small, poorly fitted or top-dose-only effect, or effect the other way; inactive means flat fitted curve, though single readings scatter. Potencies beside an inconclusive call are fits to weak or partial responses and may not hold up.

Assay: Nrf2 qHTS screen for inhibitors; further: nearly all actives have a fitted effect of over 60% in size
Conditions: A549 ARE-Fluc reporter, luciferase luminescence, 18-24 h; activity change, negative = inhibition: at 46 µM (top of the series)
Summary of the method: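 Two sequential reads on A549 ARE_Fluc cells exposed to compound for 18-24 h: a CellTiter-Fluor fluorescence read for viability, then a luciferase luminescence read for Nrf2/ARE activity.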
On the % scale 0 is the no-effect control and ±100 the full control effect; potency means the concentration at half of the fitted maximal effect.

SMILES	Potency	activity change, negative = inhibition
Nc1ccc(-c2nc3ccccc3s2)cn1	inconclusive: 3.66 µM [activator, partial curve]	–
Cc1ccc(C)n1-c1nnc(N2CCC(C(=O)Nc3ccccc3Br)CC2)s1	inactive	–
O=C(N/N=C/C(Br)=C/c1ccccc1)c1cccnc1	inconclusive: 8.2 µM [activator, partial curve]	–
O=C(NNC(=S)Nc1ccc(Cl)cc1)c1ccccc1	inconclusive: 29.1 µM [falling, single point]	–
O=C(Nc1ccccc1)OC1CCCCc2cccnc21 (stereo not given)	inconclusive: 9.2 µM [activator, partial curve]	–
COc1ccc2c(c1)Cc1sc(NC(=O)c3ccccc3Br)nc1-2	inconclusive: 16.4 µM [falling, single point]	–
Cc1cccc(/C=N/Nc2nncc3ccccc23)c1	inconclusive: 9.2 µM [activator, partial curve]	–
CCc1ccc(NC(=O)c2ccc3c(c2)N(Cc2ccc(C)cc2)CCS3)cc1	inconclusive: 7.31 µM [activator, partial curve, poor fit]	–
Cc1ccc(SCCOCCN2CC(C)OC(C)C2)cc1 (stereo not given)	inconclusive: 29.1 µM [activator, single point]	–
Cc1ccc(-c2nc(C)sc2CC(=O)Nc2cccc(C)c2C)cc1	inactive	–
CC(=O)Nc1ccc(C(=O)N/N=C/c2ccccc2OC(=O)c2ccc(Cl)cc2)cc1	inconclusive: 23.1 µM [falling, partial curve]	–
Cc1cc2cc(C)c(NCCNC(=O)c3cccs3)nc2cc1C	inconclusive: 4.11 µM [activator, full curve]	–
N#Cc1ccccc1N/C=C/C(=O)c1ccc(Cl)cc1	inconclusive: 1.64 µM [activator, partial curve]	–
O=C(CN1CCN(Cc2ccccc2)CC1)c1ccc(Br)cc1	inconclusive: 7.31 µM [falling, partial curve, poor fit]	–
CC(=O)Nc1ccc(Nc2nc(C)nc3c2oc2ccccc23)cc1	inactive	–
N#CC(c1ccc(F)cc1)c1ccc(C(=O)c2ccccc2)cc1 (stereo not given)	inconclusive: 29.1 µM [falling, single point]	–
CCOc1ccc(S(=O)(=O)/N=C(/Nc2ccc(OC)cc2)c2ccccc2)cc1	inconclusive: 6.51 µM [falling, single point]	–
CC1CCN(CCc2nc3cc(NC(=O)COc4ccc(Cl)cc4)ccc3n2C)CC1	inconclusive: 4.61 µM [falling, full curve, poor fit]	–
CCN(CC)C(=O)c1sc(NC(=O)c2ccc(Br)o2)c(C(=O)OC)c1C	inconclusive: 32.6 µM [falling, single point]	–
COc1ccccc1CNc1cc(-c2ccccc2)nc2nncn12	inconclusive: 23.1 µM [falling, partial curve, poor fit]	–
OCCN1CCN(c2ncnc3sc4c(c23)CCCC4)CC1	inactive	–
CNC(=O)COc1ncnc2scc(-c3ccc(F)cc3)c12	inactive	–

SMILES	Potency	activity change, negative = inhibition
CCOc1cccc(C(=O)Nc2c(C(=O)c3ccc(OC)cc3)oc3ccccc23)c1	inconclusive: 1.46 µM [falling, partial curve, poor fit]	–
Cc1cccc(N2CCN(C(=O)C3CCCCC3)CC2)c1C	inactive	–
COc1ccc(N2Cc3cccc(C(=O)Nc4ccc(C(C)C)cc4)c3C2=O)cc1	inconclusive: 0.58 µM [activator, full curve]	–
CC(=O)c1ccc(C(=O)N(CCCN(C)C)c2nc3c(C)c(C)ccc3s2)cc1	inactive	–
NC(=O)c1ccsc1NC(=O)COC(=O)Cc1ccccc1Cl	inconclusive: 32.6 µM [activator, partial curve, poor fit]	–
O=C(NC1C(=O)NNC1c1ccccc1)c1ccccc1 (stereo not given)	inconclusive: 20.6 µM [activator, partial curve]	–
N#Cc1cc2c(nc1SCC(O)CS(=O)(=O)Cc1ccc(Cl)cc1)CCCC2 (stereo not given)	inconclusive: 4.11 µM [falling, single point]	–
Cc1cc(C)c(C#N)c(SCc2ccccc2)n1	inconclusive: 11.6 µM [activator, partial curve, poor fit]	–
CCc1ccccc1N(C)C(=O)C1CCCN(c2ncnc3onc(-c4ccc(F)cc4)c23)C1 (stereo not given)	inconclusive: 16.4 µM [falling, single point]	–
Cc1ccc(C)c(N2CCN(C(=O)c3ccc(CS(=O)Cc4cccc(Cl)c4)o3)CC2)c1 (stereo not given)	active: 18.4 µM	–
Cc1ccc(OCCn2c(CNc3cccc(C)c3)nc3ccccc32)cc1	–	inactive: -5.58% [at 9.27 µM]
COc1ccccc1NC(=O)c1ccc(NC(=O)CNC(=O)c2ccc(OC)c(OC)c2)cc1	inconclusive: 29.1 µM [falling, single point]	–
Cc1cn(C2CC3OCC(NC(=O)C4CCCN4C(=O)OC(C)(C)C)C3O2)c(=O)[nH]c1=O (stereo not given)	inconclusive: 25.9 µM [activator, partial curve, poor fit]	–
Cc1cnc(CN(C)C(=O)C2CCC(=O)N(CCc3ccccc3)C2)[nH]1 (stereo not given)	inconclusive: 2.06 µM [falling, partial curve, poor fit]	–
O=c1[nH]nc(Cc2ccc(-c3ccc(Cl)cc3)o2)c2ccccc12	inconclusive: 6.51 µM [falling, partial curve, poor fit]	–
CC(=O)N1CCc2cc(S(=O)(=O)N3CCN(S(=O)(=O)c4c(F)cccc4F)CC3)ccc21	inactive	–
O=C(COC(=O)CSc1ccc(Cl)cc1)Nc1ccccc1	inconclusive: 20.6 µM [falling, single point]	–
CCc1cc2ccc(OC)cc2nc1SCC(=O)NNC(=O)c1ccco1	inactive	–
Cc1ccc(/C=C(\C#N)C(=O)Nc2ccccn2)o1	inconclusive: 10.3 µM [activator, partial curve]	–
Cc1cnc(C(=O)Nc2ccccc2-c2ccc(C)o2)cn1	inconclusive: 6.51 µM [falling, partial curve, poor fit]	–
O=C1CCc2cc(S(=O)(=O)Nc3cccc4ccccc34)ccc2N1	inconclusive: 18.4 µM [falling, partial curve, poor fit]	–
COc1ccc(-c2ccc(C(=O)O)c(=O)[nH]2)cc1	inconclusive: 20.6 µM [activator, partial curve, poor fit]	–

Looked up one by one from the list above, five records:
SMILES	Potency	activity change, negative = inhibition
CC1CCN(CCc2nc3cc(NC(=O)COc4ccc(Cl)cc4)ccc3n2C)CC1	inconclusive: 4.61 µM [falling, full curve, poor fit]	–
O=c1[nH]nc(Cc2ccc(-c3ccc(Cl)cc3)o2)c2ccccc12	inconclusive: 6.51 µM [falling, partial curve, poor fit]	–
CCc1ccccc1N(C)C(=O)C1CCCN(c2ncnc3onc(-c4ccc(F)cc4)c23)C1 (stereo not given)	inconclusive: 16.4 µM [falling, single point]	–
CCc1ccc(NC(=O)c2ccc3c(c2)N(Cc2ccc(C)cc2)CCS3)cc1	inconclusive: 7.31 µM [activator, partial curve, poor fit]	–
CCN(CC)C(=O)c1sc(NC(=O)c2ccc(Br)o2)c(C(=O)OC)c1C	inconclusive: 32.6 µM [falling, single point]	–

Later entries:

SMILES	Potency	activity change, negative = inhibition
CCN(C(=O)COC(=O)c1n[nH]c2ccccc12)c1ccccc1	inconclusive: 16.4 µM [falling, single point]	–
COCCOc1cc(Nc2nnc(C(F)(F)F)s2)c(Cl)cc1Cl	inconclusive: 32.6 µM [falling, single point]	–
COc1ccc(-c2cc3c(=O)n(CC(=O)NCCCN4CCC(Cc5ccccc5)CC4)ncn3n2)cc1	inconclusive: 10.3 µM [activator, partial curve, poor fit]	–
O=C(Cn1c(=O)[nH]c2ccsc2c1=O)N1CCN(c2ccc(F)cc2)CC1	inactive	–
COc1ccc(C(=O)CC(=O)Nc2ccc([N+](=O)[O-])cc2)cc1	inconclusive: 29.1 µM [falling, single point]	–
COc1ccc(C(=NN)c2ccc(OC)cc2)cc1	inconclusive: 13 µM [activator, partial curve]	–
COc1c(Cl)cccc1-c1cn2ccccc2n1	inconclusive: 1.84 µM [activator, full curve]	–
COC(=O)c1sc(N)c(C(=O)OC)c1COC(=O)CCNS(=O)(=O)c1ccc(C)cc1	inconclusive: 20.6 µM [falling, single point]	–
O=C(CN(c1ccc(Cl)c(C(F)(F)F)c1)S(=O)(=O)c1ccccc1)N1CCc2ccccc2C1	inconclusive: 29.1 µM [falling, single point]	–
Cc1cccc(-n2c(C)cc(C=C3C(=O)c4ccccc4C3=O)c2C)c1	inconclusive: 14.6 µM [activator, single point]	–
O=C(O)c1cccc(NC(=O)c2ccc(Cl)c(S(=O)(=O)N3CCCCCC3)c2)c1	inconclusive: 23.1 µM [activator, single point]	–
Cc1ccc(C(=O)Nc2scc(-c3ccccc3)c2C(=O)O)o1	inconclusive: 29.1 µM [falling, single point]	–
COC(=O)c1ccc(Cl)c(NC(=O)CN(c2ccccc2)S(=O)(=O)c2ccc(OC)cc2)c1	inconclusive: 29.1 µM [falling, single point]	–
COc1cc(NC(=O)CN(C)S(=O)(=O)c2ccc3[nH]c4c(c3c2)CCCC4)cc(OC)c1OC	inconclusive: 29.1 µM [falling, single point]	–
COc1ccc(OC2CCN(S(=O)(=O)c3ccc(OC)cc3)CC2)cc1	inconclusive: 29.1 µM [falling, single point]	–
O=C(COc1ccccc1Cl)NCC(c1cccs1)N1CCOCC1 (stereo not given)	inconclusive: 18.4 µM [falling, partial curve, poor fit]	–
c1ccc(OCCSc2nc3ccccc3o2)cc1	inconclusive: 29.1 µM [activator, single point]	–
CC1(C)CC(=O)C(C2C3=C(CC(C)(C)CC3=O)Oc3c(Br)cc(Br)cc32)=C(O)C1 (stereo not given)	active: 23.1 µM	–
CN1/C(=C\C=C2/SC(=S)NC2=O)C(C)(C)c2ccccc21	inconclusive: 20.6 µM [falling, single point]	–
Cc1ccc(-c2noc(CSc3nc(N)cc(N)n3)n2)cc1	inconclusive: 1.46 µM [activator, partial curve, poor fit]	–
Cc1noc(C)c1C(=O)OCC(=O)Nc1cc(Cl)ccc1Oc1ccccc1	inactive	–
